Assay results: PubChem BioAssay AID493014 (National Center for Advancing Translational Sciences (NCATS), 2011)
The other results are listed elsewhere or left out. Further columns of the screen follow, without active or inactive calls. Most of these compounds were active or inconclusive in the main read-out, so they are no random draw. Potencies come from curve fits of mixed quality, noted in brackets.

Assay: qHTS Assay to Find Inhibitors of Chronic Active B-Cell Receptor Signaling
Conditions: ABC-DLBCL IkBa-CBG/CBR reporter, luminescence ratio (green luciferase fused to IkBa over red control in TMD8 lymphoma cells), 4 h; measured here: CBR red luminescence, cell number
In short: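 TMD8 human ABC-DLBCL cells with doxycycline-inducible IκBα–green luciferase fusion and unfused red luciferase, in 0.5% FBS medium; compounds up to 46 uM, 4 h at 37C. Green/red luminescence ratio, filter-overlap corrected, fitted to concentration-response curves.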

Row | SMILES | AC50
1 | Cc1ccc(C)c(N=Cc2c(O)c3ccccc3oc2=O)c1 | 1.26 µM [falling, full curve, poor fit]
2 | CSCCCNC(=O)c1ccc(OC2CCN(C(=O)c3cccnc3)CC2)cc1 | 35.5 µM [rising, partial curve, poor fit]
3 | O=C(COC(=O)c1cc([N+](=O)[O-])ccc1N1CCOCC1)Nc1cccc(F)c1 | 3.55 µM [rising, partial curve, poor fit]
4 | COC(=O)CC1=C(C(=O)OC)[C@@H](c2ccccc2[N+](=O)[O-])C(C#N)=C(N)O1 | 3.55 µM [falling, partial curve, poor fit]
5 | CCSc1nnc(NC(=O)c2ccc3ccccc3n2)s1 | 5.62 µM [falling, single point]
6 | CCN1CCN(Cc2ccc(NC(=O)c3cc(NC(=O)c4cncc(-c5ccc(C#N)cc5)c4)cc(OC)c3)cc2C(F)(F)F)CC1 | 35.5 µM [rising, single point]
7 | CCOc1ccc(-n2c(SCC(=O)N3CCC(C(=O)O)CC3)nc3ccccc3c2=O)cc1 | 8.91 µM [falling, partial curve, poor fit]
8 | Cc1ccc(S(=O)(=O)Oc2ccc(C3C4=C(CCCC4=O)N(CCC(=O)O)C4=C3C(=O)CCC4)cc2Cl)cc1 | 16.4 µM [rising, partial curve, poor fit]
9 | COc1cc(/C=C/c2sc3ccccc3[n+]2CCCS(=O)(=O)[O-])ccc1O | 7.08 µM [rising, partial curve, poor fit]
10 | CC(/C=C/C=C/c1ccccc1)=N\NC(=O)c1cccnc1 | 35.5 µM [falling, single point]
11 | COc1cc(S(=O)(=O)NC2CCCC2)ccc1F | 0.164 µM [rising, full curve, poor fit]
12 | O=C(Nc1cccc(C(F)(F)F)c1)c1cc2c(s1)-c1ccccc1OC2 | 29.1 µM [rising, single point]
13 | Cc1ccc(NC(=O)Nc2cccc(Cl)c2)c(C(=O)O)c1 | 1.78 µM [falling, full curve, poor fit]
14 | COC(=O)CCCCCCCCC(=O)Nc1nc2ccccc2s1 | 1.58 µM [falling, full curve]
15 | CCOc1ccccc1-c1nnc(CS(=O)(=O)c2ccccc2)o1 | 35.5 µM [falling, single point]
16 | Cc1cccc(NC(=O)CC23CC4CC(C2)CC(n2nnc(C)n2)(C4)C3)c1 | 0.411 µM [rising, full curve, poor fit]
17 | Fc1ccc(Br)cc1C1C=C(c2ccc(Br)s2)Nc2ncnn21 (stereo not given) | 0.517 µM [rising, full curve, poor fit]
18 | Cc1ccccc1Nc1ncnc2c1cnn2Cc1ccccc1 | 10 µM [falling, partial curve]
19 | c1ccc(-c2nc[nH]c2-c2ccccc2)cc1 | 8.2 µM [falling, partial curve, poor fit]
20 | COc1ccc(C)cc1-n1nnnc1SCc1nc2ccccc2s1 | 3.16 µM [rising, single point]

Rewritten in CSV form: part of the list above
Row,SMILES,AC50
7,CCOc1ccc(-n2c(SCC(=O)N3CCC(C(=O)O)CC3)nc3ccccc3c2=O)cc1,"8.91 µM [falling, partial curve, poor fit]"
8,Cc1ccc(S(=O)(=O)Oc2ccc(C3C4=C(CCCC4=O)N(CCC(=O)O)C4=C3C(=O)CCC4)cc2Cl)cc1,"16.4 µM [rising, partial curve, poor fit]"

Later entries

Row | SMILES | AC50
21 | COc1cc2[nH]c(=O)n(C3CCCCC3)c(=O)c2cc1OC | 8.2 µM [rising, partial curve, poor fit]
22 | CN(C)C=NC(=O)c1cc(C(=O)c2ccc(C(C)(C)C)cc2)c[nH]1 | 5.62 µM [rising, single point]
23 | O=C(CSc1ccsc1[N+](=O)[O-])N1CCN(c2ccc(Cl)cc2)CC1 | 32.6 µM [rising, single point]
24 | CCS(=O)(=O)c1ccc2oc(Nc3cc(Cl)ccc3OC)nc2c1 | 2.24 µM [rising, full curve, poor fit]
25 | Oc1ccc(-c2nc(-c3ccc(F)cc3)c(-c3ccncc3)[nH]2)cc1 | 9.2 µM [falling, partial curve, poor fit]
26 | Cc1onc(-c2ccccc2)c1C(=O)Nc1nnc(COc2ccc(Cl)cc2)s1 | 6.51 µM [falling, partial curve, poor fit]
27 | CCN(CC(=O)Nc1ccccc1OC)C(=O)CC1CC2CCC1C2 (stereo not given) | 23.1 µM [rising, partial curve]
28 | COc1ccc(NC(=O)Cn2c(=O)oc3ccccc32)cc1 | 25.1 µM [falling, single point]
29 | C[C@H](CO)N1C[C@H](C)[C@@H](CN(C)Cc2ccncc2)Oc2c(NS(=O)(=O)c3ccccc3)cccc2C1=O | 4.11 µM [rising, full curve]
30 | CCCCn1c(N)c(N(CC(C)C)C(=O)CCCc2nc3ccccc3c(=O)[nH]2)c(=O)[nH]c1=O | 23.1 µM [rising, single point]
31 | Nc1nc(NCCN2CCOCC2)nc(NCc2ccccc2)c1[N+](=O)[O-] | 20 µM [rising, partial curve, poor fit]
32 | COc1cc(/C=C2/NC(=O)N(c3cccc(Cl)c3)C2=O)ccc1O | 10 µM [falling, single point]
33 | CNC(=S)NNC(=O)c1ccc2c(c1)OCO2 | 11.2 µM [falling, partial curve]
34 | N/C(=N\OC(=O)c1cccc([N+](=O)[O-])c1)c1ccccn1 | 15.8 µM [falling, single point]
35 | CC(C)(O)CNC(=O)Nc1ccc(Cl)c(Cl)c1 | 0.562 µM [rising, full curve, poor fit]
36 | COc1cc(/C=N/N(C)c2ccccc2)cc(Cl)c1O | 0.731 µM [rising, full curve, poor fit]
37 | COc1ccc(NC(=O)N(C)C[C@H]2Oc3c(NC(=O)C4CCCCC4)cccc3C(=O)N([C@H](C)CO)C[C@@H]2C)cc1 | 10.3 µM [rising, partial curve, poor fit]
38 | O=C(Nc1nnc(-c2ccncc2)o1)c1ccccc1F | 11.2 µM [falling, partial curve]
39 | Cc1ccc(C(=O)NC(=C(Cl)Cl)S(=O)(=O)c2ccc(C)cc2)cc1 | 5.8 µM [falling, full curve, poor fit]
40 | Cc1[nH]c2ccccc2c1N=Nc1cccc(C(=O)O)c1 | 0.058 µM [falling, full curve]
